Measurements taken from the supplement of paper PMC12819154, “High-throughput peptide-centric local stability assay extends protein–ligand identification to membrane proteins, tissues and bacteria” (Nature Structural & Molecular Biology, 2025).
This is one part of the list. Most entries show no effect beyond the scatter of the controls.

The chains behind the UniProt entries cited, without tags or fusion partners. Where a name states a change or a piece, a line headed by the entry shows the natural chain unless it says otherwise.
UniProt Q9CRG1: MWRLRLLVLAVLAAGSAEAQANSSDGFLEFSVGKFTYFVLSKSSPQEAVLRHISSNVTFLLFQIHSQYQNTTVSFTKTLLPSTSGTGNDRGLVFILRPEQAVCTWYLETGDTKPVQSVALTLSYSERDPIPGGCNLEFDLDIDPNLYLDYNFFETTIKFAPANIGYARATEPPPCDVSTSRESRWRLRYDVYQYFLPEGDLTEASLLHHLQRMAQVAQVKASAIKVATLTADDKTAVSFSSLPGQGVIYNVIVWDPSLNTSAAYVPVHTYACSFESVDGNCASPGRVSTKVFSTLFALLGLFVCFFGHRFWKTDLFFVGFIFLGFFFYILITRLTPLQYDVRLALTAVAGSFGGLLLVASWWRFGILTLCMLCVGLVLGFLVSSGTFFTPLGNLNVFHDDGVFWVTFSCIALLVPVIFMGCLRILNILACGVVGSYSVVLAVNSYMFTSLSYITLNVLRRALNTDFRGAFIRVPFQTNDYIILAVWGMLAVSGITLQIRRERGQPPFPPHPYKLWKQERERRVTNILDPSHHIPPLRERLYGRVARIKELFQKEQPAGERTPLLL
UniProt Q99KK1: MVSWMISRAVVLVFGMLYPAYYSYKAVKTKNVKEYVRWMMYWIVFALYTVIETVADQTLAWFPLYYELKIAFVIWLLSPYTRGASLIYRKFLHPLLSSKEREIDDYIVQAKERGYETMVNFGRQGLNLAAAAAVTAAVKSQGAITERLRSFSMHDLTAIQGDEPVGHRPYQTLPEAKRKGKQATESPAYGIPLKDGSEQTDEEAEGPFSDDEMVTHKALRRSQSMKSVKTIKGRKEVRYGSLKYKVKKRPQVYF
UniProt Q9CRD2: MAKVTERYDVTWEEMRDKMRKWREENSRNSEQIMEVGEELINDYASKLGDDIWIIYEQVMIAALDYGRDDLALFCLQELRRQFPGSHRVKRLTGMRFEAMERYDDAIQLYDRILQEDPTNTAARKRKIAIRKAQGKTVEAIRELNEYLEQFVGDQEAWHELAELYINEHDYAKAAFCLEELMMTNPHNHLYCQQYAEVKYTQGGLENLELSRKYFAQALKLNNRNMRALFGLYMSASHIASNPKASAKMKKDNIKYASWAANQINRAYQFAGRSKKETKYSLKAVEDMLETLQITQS
UniProt Q9CRC6: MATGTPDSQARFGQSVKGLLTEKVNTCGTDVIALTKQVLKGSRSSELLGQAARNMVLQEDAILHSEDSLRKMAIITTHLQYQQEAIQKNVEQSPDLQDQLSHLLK
UniProt Q9CPR7: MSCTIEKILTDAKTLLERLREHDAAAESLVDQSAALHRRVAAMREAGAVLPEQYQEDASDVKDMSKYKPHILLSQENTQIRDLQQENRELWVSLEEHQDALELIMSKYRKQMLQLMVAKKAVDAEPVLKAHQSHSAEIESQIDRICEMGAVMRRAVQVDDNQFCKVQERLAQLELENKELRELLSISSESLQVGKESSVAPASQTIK
UniProt Q9CQW1: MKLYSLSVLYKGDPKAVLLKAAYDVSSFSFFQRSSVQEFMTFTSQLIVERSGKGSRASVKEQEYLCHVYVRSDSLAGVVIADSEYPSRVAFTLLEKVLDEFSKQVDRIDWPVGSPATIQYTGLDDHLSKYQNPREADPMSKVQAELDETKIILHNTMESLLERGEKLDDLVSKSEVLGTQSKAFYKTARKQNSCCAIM
UniProt Q99L45, whole entry: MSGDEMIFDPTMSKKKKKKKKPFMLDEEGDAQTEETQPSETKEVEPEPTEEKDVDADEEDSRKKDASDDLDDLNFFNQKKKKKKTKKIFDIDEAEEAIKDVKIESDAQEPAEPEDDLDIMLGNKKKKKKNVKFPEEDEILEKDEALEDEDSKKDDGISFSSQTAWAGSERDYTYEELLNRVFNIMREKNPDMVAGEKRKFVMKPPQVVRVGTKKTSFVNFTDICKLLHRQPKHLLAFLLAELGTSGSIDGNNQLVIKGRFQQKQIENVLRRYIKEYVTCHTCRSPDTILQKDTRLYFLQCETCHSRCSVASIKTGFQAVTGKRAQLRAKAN
UniProt Q9CPQ1: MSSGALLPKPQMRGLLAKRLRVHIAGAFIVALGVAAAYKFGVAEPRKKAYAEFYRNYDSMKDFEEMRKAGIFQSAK
UniProt Q9CQE1: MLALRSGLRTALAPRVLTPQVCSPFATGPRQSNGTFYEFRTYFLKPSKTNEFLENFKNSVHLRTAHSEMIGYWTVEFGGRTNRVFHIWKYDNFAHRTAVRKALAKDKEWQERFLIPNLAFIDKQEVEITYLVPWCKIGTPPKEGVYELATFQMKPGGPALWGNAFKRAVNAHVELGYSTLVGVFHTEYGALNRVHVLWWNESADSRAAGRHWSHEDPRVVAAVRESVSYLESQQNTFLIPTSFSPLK
UniProt Q99KV1: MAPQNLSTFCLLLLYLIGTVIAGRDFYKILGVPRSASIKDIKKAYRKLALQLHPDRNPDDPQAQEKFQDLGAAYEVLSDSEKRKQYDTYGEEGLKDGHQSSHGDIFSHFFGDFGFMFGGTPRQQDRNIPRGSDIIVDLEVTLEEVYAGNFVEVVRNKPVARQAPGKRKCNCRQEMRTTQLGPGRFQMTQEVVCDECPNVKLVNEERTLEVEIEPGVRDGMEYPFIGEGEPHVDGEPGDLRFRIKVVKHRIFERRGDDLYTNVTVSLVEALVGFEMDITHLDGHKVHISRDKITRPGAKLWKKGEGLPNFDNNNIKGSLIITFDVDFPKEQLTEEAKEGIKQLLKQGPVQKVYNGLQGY
UniProt Q99MD6, whole entry: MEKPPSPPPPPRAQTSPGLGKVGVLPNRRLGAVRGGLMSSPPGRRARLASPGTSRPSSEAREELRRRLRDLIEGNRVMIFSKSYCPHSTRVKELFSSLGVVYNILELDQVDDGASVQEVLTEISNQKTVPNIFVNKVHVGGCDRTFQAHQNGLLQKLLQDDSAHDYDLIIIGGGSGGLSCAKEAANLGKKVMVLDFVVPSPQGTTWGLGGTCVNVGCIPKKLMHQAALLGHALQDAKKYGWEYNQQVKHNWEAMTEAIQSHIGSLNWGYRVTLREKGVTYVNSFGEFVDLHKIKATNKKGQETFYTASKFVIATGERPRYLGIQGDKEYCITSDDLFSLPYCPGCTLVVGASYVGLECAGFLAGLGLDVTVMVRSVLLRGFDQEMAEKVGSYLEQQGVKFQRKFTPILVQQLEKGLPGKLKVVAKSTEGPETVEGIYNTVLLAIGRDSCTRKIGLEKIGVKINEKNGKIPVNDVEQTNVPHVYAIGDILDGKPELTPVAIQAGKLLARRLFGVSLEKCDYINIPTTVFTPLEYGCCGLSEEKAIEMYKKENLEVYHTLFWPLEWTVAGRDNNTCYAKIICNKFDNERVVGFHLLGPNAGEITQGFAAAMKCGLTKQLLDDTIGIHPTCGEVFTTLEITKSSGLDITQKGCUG
UniProt Q9CR35, whole entry: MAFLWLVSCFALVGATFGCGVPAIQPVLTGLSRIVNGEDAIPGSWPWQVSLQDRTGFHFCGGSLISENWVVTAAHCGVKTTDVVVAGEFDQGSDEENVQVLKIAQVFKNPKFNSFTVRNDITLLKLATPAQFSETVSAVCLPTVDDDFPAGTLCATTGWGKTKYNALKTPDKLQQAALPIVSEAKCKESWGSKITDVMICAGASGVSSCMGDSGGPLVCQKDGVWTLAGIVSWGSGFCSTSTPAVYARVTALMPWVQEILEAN
UniProt Q99K67: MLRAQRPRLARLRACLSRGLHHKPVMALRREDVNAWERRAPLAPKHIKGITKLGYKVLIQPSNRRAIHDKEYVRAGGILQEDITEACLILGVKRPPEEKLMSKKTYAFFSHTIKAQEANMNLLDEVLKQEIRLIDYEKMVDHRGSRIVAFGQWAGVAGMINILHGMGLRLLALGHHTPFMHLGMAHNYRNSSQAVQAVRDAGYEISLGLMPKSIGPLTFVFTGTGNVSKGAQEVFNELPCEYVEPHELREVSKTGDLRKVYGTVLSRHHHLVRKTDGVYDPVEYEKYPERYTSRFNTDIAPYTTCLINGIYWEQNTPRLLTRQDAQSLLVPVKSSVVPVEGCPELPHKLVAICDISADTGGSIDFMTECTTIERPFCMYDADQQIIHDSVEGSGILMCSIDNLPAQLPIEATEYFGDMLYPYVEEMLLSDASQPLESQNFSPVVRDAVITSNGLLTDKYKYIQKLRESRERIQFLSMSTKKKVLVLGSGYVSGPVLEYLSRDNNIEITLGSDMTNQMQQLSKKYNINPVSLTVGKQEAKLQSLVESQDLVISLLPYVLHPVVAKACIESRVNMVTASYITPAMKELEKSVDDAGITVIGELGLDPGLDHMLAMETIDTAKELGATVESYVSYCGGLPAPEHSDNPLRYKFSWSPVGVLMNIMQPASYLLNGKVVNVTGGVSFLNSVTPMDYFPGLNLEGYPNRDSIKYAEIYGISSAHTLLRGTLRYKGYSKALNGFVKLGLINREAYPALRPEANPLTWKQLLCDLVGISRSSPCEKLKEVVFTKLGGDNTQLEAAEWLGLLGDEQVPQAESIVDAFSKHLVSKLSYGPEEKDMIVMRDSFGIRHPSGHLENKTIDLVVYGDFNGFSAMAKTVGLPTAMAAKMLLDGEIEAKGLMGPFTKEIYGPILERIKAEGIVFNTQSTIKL
UniProt Q99M07: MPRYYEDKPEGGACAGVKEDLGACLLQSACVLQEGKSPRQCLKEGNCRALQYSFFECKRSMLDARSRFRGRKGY
UniProt Q99JR5: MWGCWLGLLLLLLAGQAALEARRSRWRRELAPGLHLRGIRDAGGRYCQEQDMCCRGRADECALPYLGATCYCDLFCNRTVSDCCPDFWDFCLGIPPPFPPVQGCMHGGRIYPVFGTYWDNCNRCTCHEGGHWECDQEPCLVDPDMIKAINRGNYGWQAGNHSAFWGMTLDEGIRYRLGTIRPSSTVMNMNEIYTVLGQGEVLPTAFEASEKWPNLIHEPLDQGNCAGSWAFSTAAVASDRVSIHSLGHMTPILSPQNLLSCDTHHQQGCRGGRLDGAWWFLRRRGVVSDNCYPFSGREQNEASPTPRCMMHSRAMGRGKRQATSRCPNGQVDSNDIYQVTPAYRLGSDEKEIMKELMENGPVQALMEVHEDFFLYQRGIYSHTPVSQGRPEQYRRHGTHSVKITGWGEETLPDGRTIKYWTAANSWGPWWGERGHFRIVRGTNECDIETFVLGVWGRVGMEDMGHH
UniProt Q99LC5: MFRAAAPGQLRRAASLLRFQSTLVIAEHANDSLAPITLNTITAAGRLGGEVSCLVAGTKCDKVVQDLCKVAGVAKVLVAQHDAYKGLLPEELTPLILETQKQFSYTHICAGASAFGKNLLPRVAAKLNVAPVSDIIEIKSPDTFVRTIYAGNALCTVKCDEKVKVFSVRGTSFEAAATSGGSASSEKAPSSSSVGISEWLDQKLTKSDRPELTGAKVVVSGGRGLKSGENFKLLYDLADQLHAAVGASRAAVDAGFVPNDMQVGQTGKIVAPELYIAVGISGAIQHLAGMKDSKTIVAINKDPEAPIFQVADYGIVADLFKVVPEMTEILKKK
UniProt Q9CQF4: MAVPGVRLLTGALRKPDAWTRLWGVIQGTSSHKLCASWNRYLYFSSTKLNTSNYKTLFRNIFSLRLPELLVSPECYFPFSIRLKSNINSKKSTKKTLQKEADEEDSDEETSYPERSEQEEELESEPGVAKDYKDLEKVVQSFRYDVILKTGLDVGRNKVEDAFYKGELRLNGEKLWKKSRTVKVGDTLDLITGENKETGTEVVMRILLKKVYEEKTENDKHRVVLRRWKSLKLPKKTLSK
UniProt Q99MR3: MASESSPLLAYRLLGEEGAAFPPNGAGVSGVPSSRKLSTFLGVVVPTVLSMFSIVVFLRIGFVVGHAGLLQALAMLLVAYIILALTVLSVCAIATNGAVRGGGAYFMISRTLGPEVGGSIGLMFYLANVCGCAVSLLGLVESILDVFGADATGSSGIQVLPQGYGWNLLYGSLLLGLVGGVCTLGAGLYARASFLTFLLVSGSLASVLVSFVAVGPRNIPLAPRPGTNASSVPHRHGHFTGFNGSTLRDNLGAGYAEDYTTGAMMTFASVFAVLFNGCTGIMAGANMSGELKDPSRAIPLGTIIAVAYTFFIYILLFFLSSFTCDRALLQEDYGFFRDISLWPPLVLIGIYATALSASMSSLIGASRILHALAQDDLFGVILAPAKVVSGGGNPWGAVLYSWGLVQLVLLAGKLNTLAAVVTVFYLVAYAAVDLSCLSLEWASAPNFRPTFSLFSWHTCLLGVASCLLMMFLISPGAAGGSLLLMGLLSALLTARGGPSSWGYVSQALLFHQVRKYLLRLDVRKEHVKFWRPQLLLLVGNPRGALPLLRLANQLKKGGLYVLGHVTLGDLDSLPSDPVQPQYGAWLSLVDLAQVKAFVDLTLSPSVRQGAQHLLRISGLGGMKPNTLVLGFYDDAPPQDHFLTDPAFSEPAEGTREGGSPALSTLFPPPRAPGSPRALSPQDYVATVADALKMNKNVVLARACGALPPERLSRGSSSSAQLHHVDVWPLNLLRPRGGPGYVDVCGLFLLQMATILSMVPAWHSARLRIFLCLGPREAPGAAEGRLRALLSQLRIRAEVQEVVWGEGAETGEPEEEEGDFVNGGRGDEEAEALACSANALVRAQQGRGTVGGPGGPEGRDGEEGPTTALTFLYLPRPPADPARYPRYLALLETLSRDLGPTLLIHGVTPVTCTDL

Each target was assayed with CN[C@@H]1C[C@H]2O[C@@](C)([C@@H]1OC)n1c3ccccc3c3c4c(c5c6ccccc6n2c5c31)C(=O)NC4 [staurosporine] (assay: log2 fold change of pooled soluble protein (PISA), ligand vs vehicle (log2 ratio); higher = more thermally stabilized). Conditions: ligand concentration: 20 uM; assay format: PISA pool 52.9/55.5/58.6 C.

Target	log2 fold change of pooled soluble protein
UniProt Q9CRG1	0.0932
UniProt Q99KK1	0.0179
UniProt Q9CR86	0.132
UniProt Q9CRA7	-0.146
UniProt Q9CRD2	-0.0148
UniProt Q9CRC6	-0.41
UniProt Q9CPR7	-0.0488
UniProt Q9CQW1	-0.0841
UniProt Q9CQM5	-0.00994
UniProt Q99L45	-0.0284
UniProt Q9CU62	-0.156
UniProt Q9CPQ1	-0.252
UniProt Q9CQI3	-0.223
UniProt Q99NH2	-0.0279
UniProt Q9CQE1	-0.276
UniProt Q99MR1	-0.114
UniProt Q99LP6	0.0268
UniProt Q99L02	-0.417
UniProt Q99KV1	0.0741

Target	log2 fold change of pooled soluble protein
UniProt Q99MD6	-0.194
UniProt Q99LJ0	0.0373
UniProt Q9CR29	-0.0375
UniProt Q9CX25	0.301
UniProt Q9CQR6	0.297
UniProt Q9CR35	-0.0259
UniProt Q99K67	-0.0892
UniProt Q99M07	-0.039
UniProt Q9CQD1	-0.0755
UniProt Q99JR5	0.0619
UniProt Q99LC5	0.0166
UniProt Q9CPW4	-0.0199
UniProt Q99JY9	0.00727
UniProt Q9CQF4	0.401
UniProt Q99MR3	-0.152
UniProt Q9CQF3	-0.0594
UniProt Q9CX56	-0.114
UniProt Q99JX4	-0.135

Quoted at random: 2 records from the list, in no set order.
Target	log2 fold change of pooled soluble protein
UniProt Q99JX4	-0.135
UniProt Q9CRC6	-0.41
